*: point of attachment. Dde = CC(=C1C(=O)CC(C)(C)CC1=O)*; Boc = CC(C)(C)OC(=O)*
Key:
[1] = general procedure: Fmoc solid-phase peptide synthesis; HMPB-BHA resin (0.86 mmol/g); Wang resin; HATU/DIEA; HBTU/HOBT/DIEA; details: conjugation step
[2] = general procedure: Fmoc solid-phase peptide synthesis; HMPB-BHA resin; HATU/DIEA; HBTU/HOBT/DIEA; details: whole synthesis

Row | Substance | conjugation yield [1] [%] | isolated yield [2] [%]
1 | 3-(6-(3-(N-(3-((6-((1-Aza-2-(2-sulfophenyl)vinyl)amino)(3-pyridyl))-Gly-Lys-Lys-Lys)aminopropyl)carbamoyl)propoxy)-2-(5-(5-oxo-1-prop-2-enyl(2-6,7,8-trihydronaphthyloxy))pentyloxy)phenyl)propanoic Acid | 35 | –
2 | Boc-GK(Dde)K(Dde)K(Dde)-OH | – | 35

Source: patent publication US6416733B1 (Bristol-Myers Squibb Pharma Company, priority 1996, dated 2002)
